# Measurements: the supplement of paper PMC8728848
# Some of the results follow.
# Key:
# Test in all cases: glycan array binding signal (z-score within array); higher = stronger binding
# Details in all cases: glycan notation: IUPAC condensed, linker removed
# GalNAc(b1-4)GlcNAc = target: GalNAc(b1-4)GlcNAc
# How it was run: (§1)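 From the Consortium for Functional Glycomics database, 3228 arrays were curated, keeping only those whose protein sequence was available. Binding is given as a within-array Z-score averaged across arrays sharing a protein sequence and across linkers. Negative Z-scores can be read as non-binding.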
# [1] = target: GalNAc(b1-4)GlcNAc(b1-2)Man
# How it was run: as §1
# [2] = target: GalNAc(b1-4)GlcNAc(b1-2)Man(a1-3)[GalNAc(b1-4)GlcNAc(b1-2)Man(a1-6)]Man(b1-4)GlcNAc(b1-4)GlcNAc
# How it was run: as §1
# [3] = target: GalNAc(b1-4)GlcNAc(b1-3)GalNAc(b1-4)GlcNAc
# How it was run: as §1
# GalNAc(b1-4)GlcNAc6S = target: GalNAc(b1-4)GlcNAc6S
# How it was run: as §1
# GalNAc(b1-6)GalNAc = target: GalNAc(b1-6)GalNAc
# How it was run: as §1
# GalNAc3S(b1-4)GlcNAc = target: GalNAc3S(b1-4)GlcNAc
# How it was run: as §1
# GalNAc3S(b1-4)GlcNAc3S = target: GalNAc3S(b1-4)GlcNAc3S
# How it was run: as §1
# [4] = target: GalNAc3S(b1-4)[Fuc(a1-3)]GlcNAc
# How it was run: as §1
# GalNAc4S6S(b1-4)GlcNAc = target: GalNAc4S6S(b1-4)GlcNAc
# How it was run: as §1
# GalNAc6S(b1-4)GlcNAc = target: GalNAc6S(b1-4)GlcNAc
# How it was run: as §1
# Glc(a1-4)Glc = target: Glc(a1-4)Glc
# How it was run: as §1
# [5] = target: Glc(a1-4)Glc(a1-4)Glc(a1-4)Glc
# How it was run: as §1
# Glc(a1-6)Glc(a1-6)Glc = target: Glc(a1-6)Glc(a1-6)Glc
# How it was run: as §1
# [6] = target: Glc(a1-6)Glc(a1-6)Glc(a1-6)Glc
# How it was run: as §1
# Glc(b1-4)Glc = target: Glc(b1-4)Glc
# How it was run: as §1
# Glc(b1-6)Glc = target: Glc(b1-6)Glc
# How it was run: as §1
# GlcA(b1-3)Gal = target: GlcA(b1-3)Gal
# How it was run: as §1
# GlcA(b1-3)GlcNAc = target: GlcA(b1-3)GlcNAc
# How it was run: as §1
# GlcA(b1-6)Gal = target: GlcA(b1-6)Gal
# How it was run: as §1
# [7] = target: GlcA3S(b1-3)Gal(b1-4)GlcNAc(b1-2)Man
# How it was run: as §1
# [8] = target: GlcA3S(b1-3)Gal(b1-4)GlcNAc(b1-3)Gal(b1-4)Glc
# How it was run: as §1
# [9] = target: GlcNAc(a1-3)Gal(b1-4)GlcNAc
# How it was run: as §1
# [10] = target: GlcNAc(a1-4)Gal(b1-3)GlcNAc
# How it was run: as §1
# [11] = target: GlcNAc(a1-4)Gal(b1-4)GalNAc
# How it was run: as §1
# [12] = target: GlcNAc(a1-4)Gal(b1-4)GlcNAc
# How it was run: as §1
# [13] = target: GlcNAc(a1-4)Gal(b1-4)GlcNAc(b1-3)Gal(b1-4)Glc
# How it was run: as §1
# [14] = target: GlcNAc(a1-4)Gal(b1-4)GlcNAc(b1-3)Gal(b1-4)GlcNAc
# How it was run: as §1
# [15] = target: GlcNAc(a1-4)Gal(b1-4)GlcNAc(b1-3)Gal(b1-4)GlcNAc(b1-3)Gal(b1-4)GlcNAc
# How it was run: as §1
# [16] = target: GlcNAc(a1-4)Gal(b1-4)GlcNAc(b1-3)Gal(b1-4)[Fuc(a1-3)]GlcNAc(b1-3)Gal(b1-4)[Fuc(a1-3)]GlcNAc
# How it was run: as §1
# [17] = target: GlcNAc(a1-6)Gal(b1-4)GlcNAc
# How it was run: as §1
# [18] = target: GlcNAc(b1-2)Gal(b1-3)GalNAc
# How it was run: as §1
# [19] = target: GlcNAc(b1-2)Man(a1-3)[GlcNAc(b1-2)Man(a1-6)]Man(b1-4)GlcNAc(b1-4)GlcNAc
# How it was run: as §1
# [20] = target: GlcNAc(b1-2)Man(a1-3)[GlcNAc(b1-2)Man(a1-6)]Man(b1-4)GlcNAc(b1-4)[Fuc(a1-6)]GlcNAc
# How it was run: as §1
# [21] = target: GlcNAc(b1-2)Man(a1-3)[GlcNAc(b1-4)][GlcNAc(b1-2)Man(a1-6)]Man(b1-4)GlcNAc(b1-4)GlcNAc
# How it was run: as §1
# [22] = target: GlcNAc(b1-2)Man(a1-3)[GlcNAc(b1-4)][GlcNAc(b1-2)Man(a1-6)]Man(b1-4)GlcNAc(b1-4)[Fuc(a1-6)]GlcNAc
# How it was run: as §1
# [23] = target: GlcNAc(b1-2)[GlcNAc(b1-4)]Man(a1-3)[GlcNAc(b1-2)Man(a1-6)]Man(b1-4)GlcNAc(b1-4)GlcNAc
# How it was run: as §1
binder,measurement,setting,value
"Erv41-EDTA (Saccharomyces cerevisiae), Q04651 (protein) MKFLVNVALVFMVVYISYIYAAAPEHHHHHHDYDIPTTENLYFQGAMGYIDQQYVVDSQVRDTVQINMDIYVNTKCDWLQINVRDQTMDRKLVLEELQLEEMPFFIPYDTKVNDINEIITPELDEILGEAIPAEFREKLDTRSFFDESDPNKAHLPEFNGCHVFGSIPVNRVSGELQITAKSLGYVASRKAPLEELKFNHVINEFSFGDFYPYIDNPLDNTAQFNQDEPLTTYVYYTSVVPTLFKKLGAEVDTNQYSVNDYRYLYKDVAAKGDKMPGIFFKYNFEPLSIVVSDVRL",glycan array binding signal (z-score),GalNAc(b1-4)GlcNAc,-0.028
same,glycan array binding signal (z-score),[1],0.741
same,glycan array binding signal (z-score),[2],0.523
same,glycan array binding signal (z-score),[3],-0.339
same,glycan array binding signal (z-score),GalNAc(b1-4)GlcNAc6S,-0.332
same,glycan array binding signal (z-score),GalNAc(b1-6)GalNAc,-0.897
same,glycan array binding signal (z-score),GalNAc3S(b1-4)GlcNAc,-0.341
same,glycan array binding signal (z-score),GalNAc3S(b1-4)GlcNAc3S,-0.816
same,glycan array binding signal (z-score),[4],-0.531
same,glycan array binding signal (z-score),GalNAc4S6S(b1-4)GlcNAc,-0.576
same,glycan array binding signal (z-score),GalNAc6S(b1-4)GlcNAc,-0.945
same,glycan array binding signal (z-score),Glc(a1-4)Glc,-0.696
same,glycan array binding signal (z-score),[5],-0.063
same,glycan array binding signal (z-score),Glc(a1-6)Glc(a1-6)Glc,-0.866
same,glycan array binding signal (z-score),[6],-0.285
same,glycan array binding signal (z-score),Glc(b1-4)Glc,0.061
same,glycan array binding signal (z-score),Glc(b1-6)Glc,-0.131
same,glycan array binding signal (z-score),GlcA(b1-3)Gal,-0.075
same,glycan array binding signal (z-score),GlcA(b1-3)GlcNAc,-0.217
same,glycan array binding signal (z-score),GlcA(b1-6)Gal,-0.48
same,glycan array binding signal (z-score),[7],0.613
same,glycan array binding signal (z-score),[8],-0.97
same,glycan array binding signal (z-score),[9],-0.577
same,glycan array binding signal (z-score),[10],-0.133
same,glycan array binding signal (z-score),[11],-0.537
same,glycan array binding signal (z-score),[12],0.055
same,glycan array binding signal (z-score),[13],-1.06
same,glycan array binding signal (z-score),[14],-1.13
same,glycan array binding signal (z-score),[15],-1.15
same,glycan array binding signal (z-score),[16],0.682
same,glycan array binding signal (z-score),[17],-0.931
same,glycan array binding signal (z-score),[18],0.502
same,glycan array binding signal (z-score),[19],0.019
same,glycan array binding signal (z-score),[20],0.801
same,glycan array binding signal (z-score),[21],-0.335
same,glycan array binding signal (z-score),[22],0.162
same,glycan array binding signal (z-score),[23],0.078

# Shown as tab-separated lines: part of the list above.
binder	measurement	setting	value
Erv41-EDTA (Saccharomyces cerevisiae), Q04651 (protein) MKFLVNVALVFMVVYISYIYAAAPEHHHHHHDYDIPTTENLYFQGAMGYIDQQYVVDSQVRDTVQINMDIYVNTKCDWLQINVRDQTMDRKLVLEELQLEEMPFFIPYDTKVNDINEIITPELDEILGEAIPAEFREKLDTRSFFDESDPNKAHLPEFNGCHVFGSIPVNRVSGELQITAKSLGYVASRKAPLEELKFNHVINEFSFGDFYPYIDNPLDNTAQFNQDEPLTTYVYYTSVVPTLFKKLGAEVDTNQYSVNDYRYLYKDVAAKGDKMPGIFFKYNFEPLSIVVSDVRL	glycan array binding signal (z-score)	[3]	-0.339
same	glycan array binding signal (z-score)	GalNAc(b1-4)GlcNAc6S	-0.332
